# Assay results: the supplement of paper PMC8728848
# The list shows a part of the results.
# B1: FimA-N2 (Actinomyces oris) (protein)
# chain: MHHHHHHSSGVDLGTENLYFQSNAWIYDVNVYPKNEAIDVDKTIQAQKLNGYGVGSLIKFPVESTAPTLDAKSFYKYFQLKDTLDERLSEVTATDVSLEGTPLQPTDYKVETKQQTVTVTFTAEGLKKIKAAPGKKVSAVFQGKVTKAGNGAITNRAQVISDTLYAEQPPTPETPPTDPENPPTSDEVISRWGDLSIKKVDTHQQGQTKA
# Assays:
# Assay in all cases: glycan array binding signal (z-score within array); higher = stronger binding
# Details in all cases: glycan notation: IUPAC condensed, linker removed
# [1] = target: Gal(b1-4)Glc
# Method in brief: (§1)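 Glycan array data came from 3228 arrays in the Consortium for Functional Glycomics database, and only arrays with an available protein sequence were kept. Glycan names were put into IUPAC-condensed notation, and columns mapping to the same glycan were averaged. The binding signal is a within-array Z-score, averaged across arrays of one protein sequence run at different concentrations or buffers and across linkers. A negative Z-score can be read as non-binding.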
# [2] = target: Gal(b1-4)Glc6S
# Method in brief: as §1
# [3] = target: Gal(b1-4)GlcNAc
# Method in brief: as §1
# [4] = target: Gal(b1-4)GlcNAc(a1-6)Gal(b1-4)GlcNAc
# Method in brief: as §1
# [5] = target: Gal(b1-4)GlcNAc(b1-2)Man
# Method in brief: as §1
# [6] = target: Gal(b1-4)GlcNAc(b1-2)Man(a1-3)Man(b1-4)GlcNAc(b1-4)GlcNAc
# Method in brief: as §1
# [7] = target: Gal(b1-4)GlcNAc(b1-2)Man(a1-3)[Gal(b1-4)GlcNAc(b1-2)Man(a1-6)]Man(b1-4)GlcNAc(b1-4)GlcNAc
# Method in brief: as §1
# [8] = target: Gal(b1-4)GlcNAc(b1-2)Man(a1-3)[Gal(b1-4)GlcNAc(b1-2)Man(a1-6)]Man(b1-4)GlcNAc(b1-4)[Fuc(a1-6)]GlcNAc
# Method in brief: as §1
# [9] = target: Gal(b1-4)GlcNAc(b1-2)Man(a1-3)[Gal(b1-4)GlcNAc(b1-2)Man(a1-6)][Gal(b1-4)GlcNAc(b1-4)]Man(b1-4)GlcNAc(b1-4)[Fuc(a1-6)]GlcNAc
# Method in brief: as §1
# [10] = target: Gal(b1-4)GlcNAc(b1-2)Man(a1-3)[Gal(b1-4)GlcNAc(b1-2)Man(a1-6)][GlcNAc(b1-4)]Man(b1-4)GlcNAc(b1-4)[Fuc(a1-6)]GlcNAc
# Method in brief: as §1
# [11] = target: Gal(b1-4)GlcNAc(b1-2)Man(a1-3)[GlcNAc(b1-2)Man(a1-6)]Man(b1-4)GlcNAc(b1-4)GlcNAc
# Method in brief: as §1
# [12] = target: Gal(b1-4)GlcNAc(b1-2)Man(a1-3)[GlcNAc(b1-4)][Gal(b1-4)GlcNAc(b1-2)Man(a1-6)]Man(b1-4)GlcNAc(b1-4)GlcNAc
# Method in brief: as §1
# [13] = target: Gal(b1-4)GlcNAc(b1-2)Man(a1-3)[Man(a1-6)]Man(b1-4)GlcNAc(b1-4)GlcNAc
# Method in brief: as §1
# [14] = target: Gal(b1-4)GlcNAc(b1-2)Man(a1-6)Man(b1-4)GlcNAc(b1-4)GlcNAc
# Method in brief: as §1
# [15] = target: Gal(b1-4)GlcNAc(b1-2)Man(a1-6)[GlcNAc(b1-2)Man(a1-3)]Man(b1-4)GlcNAc(b1-4)GlcNAc
# Method in brief: as §1
# [16] = target: Gal(b1-4)GlcNAc(b1-2)Man(a1-6)[Man(a1-3)]Man(b1-4)GlcNAc(b1-4)GlcNAc
# Method in brief: as §1
# [17] = target: Gal(b1-4)GlcNAc(b1-2)[Gal(b1-4)GlcNAc(b1-4)]Man(a1-3)[Gal(b1-4)GlcNAc(b1-2)Man(a1-6)]Man(b1-4)GlcNAc(b1-4)GlcNAc
# Method in brief: as §1
# [18] = target: Gal(b1-4)GlcNAc(b1-2)[Gal(b1-4)GlcNAc(b1-4)]Man(a1-3)[Gal(b1-4)GlcNAc(b1-2)[Gal(b1-4)GlcNAc(b1-6)]Man(a1-6)]Man(b1-4)GlcNAc(b1-4)GlcNAc
# Method in brief: as §1
# [19] = target: Gal(b1-4)GlcNAc(b1-2)[Gal(b1-4)GlcNAc(b1-4)]Man(a1-3)[GlcNAc(b1-4)][Gal(b1-4)GlcNAc(b1-2)Man(a1-6)]Man(b1-4)GlcNAc(b1-4)GlcNAc
# Method in brief: as §1
# [20] = target: Gal(b1-4)GlcNAc(b1-2)[Gal(b1-4)GlcNAc(b1-4)]Man(a1-3)[GlcNAc(b1-4)][Gal(b1-4)GlcNAc(b1-2)[Gal(b1-4)GlcNAc(b1-6)]Man(a1-6)]Man(b1-4)GlcNAc(b1-4)GlcNAc
# Method in brief: as §1
# [21] = target: Gal(b1-4)GlcNAc(b1-2)[Gal(b1-4)GlcNAc(b1-6)]Man(a1-6)[Gal(b1-4)GlcNAc(b1-2)Man(a1-3)]Man(b1-4)GlcNAc(b1-4)GlcNAc
# Method in brief: as §1
# [22] = target: Gal(b1-4)GlcNAc(b1-2)[Gal(b1-4)GlcNAc(b1-6)]Man(a1-6)[Gal(b1-4)GlcNAc(b1-2)Man(a1-3)]Man(b1-4)GlcNAc(b1-4)[Fuc(a1-6)]GlcNAc
# Method in brief: as §1
binder,measurement,setting,value
B1,glycan array binding signal (z-score),[1],0.433
same,glycan array binding signal (z-score),[2],-0.103
same,glycan array binding signal (z-score),[3],-0.39
same,glycan array binding signal (z-score),[4],-0.568
same,glycan array binding signal (z-score),[5],-0.413
same,glycan array binding signal (z-score),[6],-0.669
same,glycan array binding signal (z-score),[7],1.4
same,glycan array binding signal (z-score),[8],-1.08
same,glycan array binding signal (z-score),[9],1.48
same,glycan array binding signal (z-score),[10],-0.929
same,glycan array binding signal (z-score),[11],-0.393
same,glycan array binding signal (z-score),[12],-0.36
same,glycan array binding signal (z-score),[13],0.37
same,glycan array binding signal (z-score),[14],1.29
same,glycan array binding signal (z-score),[15],-1.43
same,glycan array binding signal (z-score),[16],0.936
same,glycan array binding signal (z-score),[17],-0.799
same,glycan array binding signal (z-score),[18],0.348
same,glycan array binding signal (z-score),[19],-0.67
same,glycan array binding signal (z-score),[20],-0.356
same,glycan array binding signal (z-score),[21],0.365
same,glycan array binding signal (z-score),[22],-0.477

# Another view of some results above.
binder	measurement	setting	value
B1	glycan array binding signal (z-score)	[20]	-0.356
same	glycan array binding signal (z-score)	[21]	0.365
